Laboratory results published in publication doi:10.1101/2020.04.10.036707.
No constants are given. Whether binding was seen depends on the method and setting. Binding seen in cells or lysates may run through a third protein. Some binding calls cover weakened binding; strength is not graded here. Where a sequence is shown, tags or fusion partners need not be part of it.

Protein sequences, listed by entry. Tags and fused reporters are not part of them.
UniProt Q9P7T4: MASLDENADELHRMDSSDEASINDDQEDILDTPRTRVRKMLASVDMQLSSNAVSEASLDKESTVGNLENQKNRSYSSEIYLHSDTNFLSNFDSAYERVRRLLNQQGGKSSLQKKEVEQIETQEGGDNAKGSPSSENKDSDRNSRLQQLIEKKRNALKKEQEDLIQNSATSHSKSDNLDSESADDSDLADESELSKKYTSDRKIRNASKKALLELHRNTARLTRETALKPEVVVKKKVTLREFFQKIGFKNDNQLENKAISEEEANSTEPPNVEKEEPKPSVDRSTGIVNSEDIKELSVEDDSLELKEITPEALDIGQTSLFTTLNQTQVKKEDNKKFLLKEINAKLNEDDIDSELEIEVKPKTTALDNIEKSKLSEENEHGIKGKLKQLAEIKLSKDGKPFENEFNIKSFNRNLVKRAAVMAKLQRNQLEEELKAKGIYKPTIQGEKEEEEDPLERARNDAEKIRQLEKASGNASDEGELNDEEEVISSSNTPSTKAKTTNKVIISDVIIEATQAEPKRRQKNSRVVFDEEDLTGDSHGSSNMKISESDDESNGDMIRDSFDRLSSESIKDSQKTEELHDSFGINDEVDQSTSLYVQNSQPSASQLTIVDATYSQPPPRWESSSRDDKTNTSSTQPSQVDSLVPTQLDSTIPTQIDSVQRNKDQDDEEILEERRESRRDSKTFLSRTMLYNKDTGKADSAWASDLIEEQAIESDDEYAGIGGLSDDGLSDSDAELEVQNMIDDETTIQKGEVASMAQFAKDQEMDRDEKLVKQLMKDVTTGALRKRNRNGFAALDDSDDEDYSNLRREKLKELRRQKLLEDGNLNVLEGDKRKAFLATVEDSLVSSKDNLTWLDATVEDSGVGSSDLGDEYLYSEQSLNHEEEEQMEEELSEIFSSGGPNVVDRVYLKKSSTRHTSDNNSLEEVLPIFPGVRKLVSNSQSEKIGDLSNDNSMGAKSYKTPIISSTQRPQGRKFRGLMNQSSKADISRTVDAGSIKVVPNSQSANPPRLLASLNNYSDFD

T1: Rqh1 (RecQ DNA helicase), myc tagged (S. pombe) (UniProt Q09811)
T1 sequence: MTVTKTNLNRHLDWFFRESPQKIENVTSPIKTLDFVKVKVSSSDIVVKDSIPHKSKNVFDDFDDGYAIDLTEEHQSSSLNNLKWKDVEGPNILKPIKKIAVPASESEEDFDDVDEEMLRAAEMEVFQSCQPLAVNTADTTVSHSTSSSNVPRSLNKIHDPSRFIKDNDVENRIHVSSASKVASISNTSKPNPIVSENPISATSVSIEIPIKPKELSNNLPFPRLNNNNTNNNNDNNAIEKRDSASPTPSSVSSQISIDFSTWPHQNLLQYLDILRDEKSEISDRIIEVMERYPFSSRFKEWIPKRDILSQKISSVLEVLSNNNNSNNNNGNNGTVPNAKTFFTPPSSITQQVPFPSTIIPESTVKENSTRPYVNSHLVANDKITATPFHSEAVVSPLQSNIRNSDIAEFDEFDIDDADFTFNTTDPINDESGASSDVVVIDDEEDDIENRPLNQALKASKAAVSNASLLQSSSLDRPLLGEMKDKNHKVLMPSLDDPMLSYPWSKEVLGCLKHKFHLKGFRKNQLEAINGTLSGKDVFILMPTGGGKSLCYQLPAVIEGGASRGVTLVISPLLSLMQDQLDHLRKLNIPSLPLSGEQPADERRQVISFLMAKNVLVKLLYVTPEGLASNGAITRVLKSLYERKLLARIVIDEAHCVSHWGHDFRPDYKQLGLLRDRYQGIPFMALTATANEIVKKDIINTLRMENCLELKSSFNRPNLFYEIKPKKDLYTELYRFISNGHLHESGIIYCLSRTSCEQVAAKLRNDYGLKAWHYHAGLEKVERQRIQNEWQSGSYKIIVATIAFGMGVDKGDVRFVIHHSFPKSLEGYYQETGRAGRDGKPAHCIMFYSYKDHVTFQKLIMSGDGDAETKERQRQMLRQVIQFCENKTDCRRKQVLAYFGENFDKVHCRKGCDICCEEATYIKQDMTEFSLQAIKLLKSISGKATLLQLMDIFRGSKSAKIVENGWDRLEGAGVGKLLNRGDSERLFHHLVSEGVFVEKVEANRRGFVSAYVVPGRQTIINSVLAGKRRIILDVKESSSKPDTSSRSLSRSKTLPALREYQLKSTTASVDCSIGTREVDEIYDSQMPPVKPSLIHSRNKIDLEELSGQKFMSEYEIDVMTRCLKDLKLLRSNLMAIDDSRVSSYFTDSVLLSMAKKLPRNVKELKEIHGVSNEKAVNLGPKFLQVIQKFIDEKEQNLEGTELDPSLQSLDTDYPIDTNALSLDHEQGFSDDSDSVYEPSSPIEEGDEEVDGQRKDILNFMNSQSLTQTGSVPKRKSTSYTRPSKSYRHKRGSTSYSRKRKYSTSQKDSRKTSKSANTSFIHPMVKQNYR

T2: Rpa1, HA tagged (S. pombe) (UniProt Q92372)
T2 sequence: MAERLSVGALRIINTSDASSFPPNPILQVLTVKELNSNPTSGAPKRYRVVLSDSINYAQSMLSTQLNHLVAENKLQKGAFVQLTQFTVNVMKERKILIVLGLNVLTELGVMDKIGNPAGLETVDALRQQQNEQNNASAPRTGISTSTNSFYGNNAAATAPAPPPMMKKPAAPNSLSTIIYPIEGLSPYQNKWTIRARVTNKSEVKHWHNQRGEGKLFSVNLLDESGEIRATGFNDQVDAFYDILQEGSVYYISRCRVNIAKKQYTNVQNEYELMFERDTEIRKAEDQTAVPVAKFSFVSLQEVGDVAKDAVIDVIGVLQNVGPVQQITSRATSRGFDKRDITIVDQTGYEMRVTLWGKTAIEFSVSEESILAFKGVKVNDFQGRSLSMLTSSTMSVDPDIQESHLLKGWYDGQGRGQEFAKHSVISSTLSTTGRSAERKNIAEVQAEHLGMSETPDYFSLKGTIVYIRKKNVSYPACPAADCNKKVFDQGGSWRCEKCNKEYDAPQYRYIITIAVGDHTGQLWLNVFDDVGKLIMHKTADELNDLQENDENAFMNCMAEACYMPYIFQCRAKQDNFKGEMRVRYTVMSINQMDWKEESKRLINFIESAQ


Key:
Assay in all cases: co-IP
[1] = biological target: T1, Rqh1 (RecQ DNA helicase), myc tagged (S. pombe)
[2] = biological target: Mrc1, HA tagged (S. pombe) (UniProt Q9P7T4)
[3] = biological target: T2, Rpa1, HA tagged (S. pombe)

Row | binding [1] | binding [2] | binding [3] | Molecule
1 | binds | – | – | Mrc1, HA tagged (from UniProt Q9P7T4 1-1019)
2 | – | binds | binds | Rqh1 (RecQ DNA helicase), myc tagged (enzyme, UniProt Q09811 1-1328) MTVTKTNLNRHLDWFFRESPQKIENVTSPIKTLDFVKVKVSSSDIVVKDSIPHKSKNVFDDFDDGYAIDLTEEHQSSSLNNLKWKDVEGPNILKPIKKIAVPASESEEDFDDVDEEMLRAAEMEVFQSCQPLAVNTADTTVSHSTSSSNVPRSLNKIHDPSRFIKDNDVENRIHVSSASKVASISNTSKPNPIVSENPISATSVSIEIPIKPKELSNNLPFPRLNNNNTNNNNDNNAIEKRDSASPTPSSVSSQISIDFSTWPHQNLLQYLDILRDEKSEISDRIIEVMERYPFSSRFKEWIPKRDILSQKISSVLEVLSNNNNSNNNNGNNGTVPNAKTFFTPPSSITQQVPFPSTIIPESTVKENSTRPYVNSHLVANDKITATPFHSEAVVSPLQSNIRNSDIAEFDEFDIDDADFTFNTTDPINDESGASSDVVVIDDEEDDIENRPLNQALKASKAAVSNASLLQSSSLDRPLLGEMKDKNHKVLMPSLDDPMLSYPWSKEVLGCLKHKFHLKGFRKNQLEAINGTLSGKDVFILMPTGGGKSLCYQLPAVIEGGASRGVTLVISPLLSLMQDQLDHLRKLNIPSLPLSGEQPADERRQVISFLMAKNVLVKLLYVTPEGLASNGAITRVLKSLYERKLLARIVIDEAHCVSHWGHDFRPDYKQLGLLRDRYQGIPFMALTATANEIVKKDIINTLRMENCLELKSSFNRPNLFYEIKPKKDLYTELYRFISNGHLHESGIIYCLSRTSCEQVAAKLRNDYGLKAWHYHAGLEKVERQRIQNEWQSGSYKIIVATIAFGMGVDKGDVRFVIHHSFPKSLEGYYQETGRAGRDGKPAHCIMFYSYKDHVTFQKLIMSGDGDAETKERQRQMLRQVIQFCENKTDCRRKQVLAYFGENFDKVHCRKGCDICCEEATYIKQDMTEFSLQAIKLLKSISGKATLLQLMDIFRGSKSAKIVENGWDRLEGAGVGKLLNRGDSERLFHHLVSEGVFVEKVEANRRGFVSAYVVPGRQTIINSVLAGKRRIILDVKESSSKPDTSSRSLSRSKTLPALREYQLKSTTASVDCSIGTREVDEIYDSQMPPVKPSLIHSRNKIDLEELSGQKFMSEYEIDVMTRCLKDLKLLRSNLMAIDDSRVSSYFTDSVLLSMAKKLPRNVKELKEIHGVSNEKAVNLGPKFLQVIQKFIDEKEQNLEGTELDPSLQSLDTDYPIDTNALSLDHEQGFSDDSDSVYEPSSPIEEGDEEVDGQRKDILNFMNSQSLTQTGSVPKRKSTSYTRPSKSYRHKRGSTSYSRKRKYSTSQKDSRKTSKSANTSFIHPMVKQNYR
3 | no binding | – | – | Cds1 (enzyme, UniProt Q09170 1-460) MEEPEEATQATQEAPLHVSQNIAKQVVNNENVFMKLVMTRMLDGKTEVIPLTTDVHNGFWRFGRHKSCEVVLNGPRVSNFHFEIYQGHRNDSDESENVVFLHDHSSNGTFLNFERLAKNSRTILSNGDEIRIGLGVPKDEISFLCQVPVKHSRDSQKNMIKSENSHYEIIRTLGSGTFAVVKLAVEVNSGKWYAIKIINKRKILLTSSEKRATEMFQREIDILKSLHHPGVVQCHEIFENDDELFIVMEYVEGGDLMDFLIANGSIDEQDCKPLLKQLLETLLHLHKQGVTHRDIKPENILITNDFHLKISDFGLAKVIHGTGTFLETFCGTMGYLAPEVLKSKNVNLDGGYDDKVDIWSLGCVLYVMLTASIPFASSSQAKCIELISKGAYPIEPLLENEISEEGIDLINRMLEINPEKRISESEALQHPWFYTVSTHEHRTPPSSSEHEATEQLNSSS
4 | binds | – | – | Rpa1, HA tagged (protein, UniProt Q92372 1-609) MAERLSVGALRIINTSDASSFPPNPILQVLTVKELNSNPTSGAPKRYRVVLSDSINYAQSMLSTQLNHLVAENKLQKGAFVQLTQFTVNVMKERKILIVLGLNVLTELGVMDKIGNPAGLETVDALRQQQNEQNNASAPRTGISTSTNSFYGNNAAATAPAPPPMMKKPAAPNSLSTIIYPIEGLSPYQNKWTIRARVTNKSEVKHWHNQRGEGKLFSVNLLDESGEIRATGFNDQVDAFYDILQEGSVYYISRCRVNIAKKQYTNVQNEYELMFERDTEIRKAEDQTAVPVAKFSFVSLQEVGDVAKDAVIDVIGVLQNVGPVQQITSRATSRGFDKRDITIVDQTGYEMRVTLWGKTAIEFSVSEESILAFKGVKVNDFQGRSLSMLTSSTMSVDPDIQESHLLKGWYDGQGRGQEFAKHSVISSTLSTTGRSAERKNIAEVQAEHLGMSETPDYFSLKGTIVYIRKKNVSYPACPAADCNKKVFDQGGSWRCEKCNKEYDAPQYRYIITIAVGDHTGQLWLNVFDDVGKLIMHKTADELNDLQENDENAFMNCMAEACYMPYIFQCRAKQDNFKGEMRVRYTVMSINQMDWKEESKRLINFIESAQ
